At least one compound was matched to its structure with a doubt left.
Assays:
SDF-1 and VEGF = assay: Intravitreal injection of heat shock inducer, induction of SDF-1 and VEGF; format: in vivo, mice; settings: identical to laser-induced heat shock
primary human RPE cells = assay: Chemically induced heat shock in primary human RPE cells, mRNA/chemokine expression; format: cell-based; settings: RPE cells exposed separately

COC1=C2C[C@@H](C)C[C@H](OC)[C@H](O)[C@@H](C)/C=C(\C)[C@H](OC(N)=O)[C@@H](OC)/C=C\C=C(/C)C(=O)NC(=CC1=O)C2=O [geldanamycin]
identical induction: induction of SDF-1 (SDF-1 and VEGF) | induction of VEGF (SDF-1 and VEGF) | induction of SDF-1 (primary human RPE cells) | induction of VEGF (primary human RPE cells)

From patent US20100068141A1, “USE OF HEAT SHOCK TO TREAT OCULAR DISEASE” (UNIVERSITY OF FLORIDA, priority 2005, published 2010)
